Data taken from patent publication US20100173835A1, “Peptides for Treatment of Obesity” (Novo Nordisk A/S, priority 2008, published 2010).
At least one compound was matched to its structure with a doubt left. Where a SMILES comes first, the peptide text is derived from it. Bridges are numbered along the chain shown (N, C = ends). [ ]: non-standard residue; d: D form. The star is where a group is joined. Lys(CH2CO2H)2 = N[C@@H](CCCCN(CC(=O)O)CC(=O)O)C(=O)O; C20 diacid = O=C(O)CCCCCCCCCCCCCCCCCCC(=O)*; C16 diacid = O=C(O)CCCCCCCCCCCCCCC(=O)*; Hyp = O=C(O)[C@@H]1C[C@@H](O)CN1; NTA = O=C(O)CN(CC(=O)O)CC(=O)*; Nle = CCCC[C@H](N)C(=O)O; Dap = NC[C@H](N)C(=O)O; AEEA = NCCOCCOCC(=O)O; βAla = NCCC(=O)O

Tested on: ad libitum fed rat model
Experiment: Assay (I) efficacy testing on appetite, ad libitum fed rat model
Type: in vivo
Conditions: dosing 1 mg/kg
Protocol: Assay (I)—Experimental protocol for efficacy testing on appetite with MC4 analogues, using an ad libitum fed rat model. TAC:SPRD @mol rats or Wistar rats from M&B Breeding and Research Centre A/S, Denmark are used for the experiments. The rats have a body weight 200-250 g at the start of experiment. The rats arrive at least 10-14 days before start of experiment with a body weight of 180-200 g. Each dose of compound is tested in a group of 8 rats. […] When the animals arrive they are housed individually in a reversed light/dark phase (lights off 7:30 am, lights on 7:30 pm), meaning that lights are off during daytime and on during nighttime. […] During this period the animals are handled at least 3 times. The experiment is conducted in the rats' home cages. Immediately before dosing the rats are randomised to the various treatment groups (n 8) by body weight. They are dosed according to body weight at between 7:00 am and 7:45 am, with a 1-3 mg/kg solution administered intraperitoneally (ip), orally (po) or subcutaneously (sc). The time of dosing is recorded for each group. After dosing, the rats are returned to their home cages, where they then have access to food and water. […] At the end of the experimental session, the animals are euthanised. The individual data are recorded in Microsoft excel sheets. Outliers are excluded after applying the Grubbs statistical evaluation test for outliers, and the result is presented graphically using the GraphPad Prism program.

Row | Compound | Food consumption (% of vehicle) 24 h | Food consumption (% of vehicle) 48 h
1 | CCCC[C@H](NC(=O)CCNC(=O)[C@H](CCCCN(CC(=O)O)CC(=O)O)NC(=O)[C@H](Cc1c[nH]cn1)NC(=O)[C@H](CCC(N)=O)NC(=O)[C@H](CO)NC(=O)[C@H](CO)NC(=O)[C@H](CCC(N)=O)NC(=O)[C@@H](CO)NC(=O)CNC(=O)COCCOCCNC(=O)COCCOCCNC(=O)CCCCCCCCCCCCCCCCCCC(=O)O)C(=O)N[C@H]1CCC(=O)NCCCC[C@@H](C(N)=O)NC(=O)[C@H](Cc2c[nH]c3ccccc23)NC(=O)[C@H](CCCNC(=N)N)NC(=O)[C@@H](Cc2ccccc2)NC(=O)[C@@H]2C[C@@H](O)CN2C1=O [Example 22, {2-[2-(2-{2-[2-(19-Carboxynonadecanoylamino)ethoxy]ethoxy}acetylamino)ethoxy]ethoxy}acetyl-Gly-D-Ser-Gln-Ser-Ser-Gln-His-Lys(biscarboxymethyl)β-Ala-Nle-c[Glu-Hyp-D-Phe-Arg-Trp-Lys]-NH2] ({C20 diacid-AEEA-AEEA}-G[dS]QSSQH[Lys(CH2CO2H)2][βAla][Nle]E[Hyp][dF]RWK-NH2; lactam 11-16) | 59 % of vehicle | 76 % of vehicle
2 | CCCC[C@H](NC(=O)[C@H](CNC(=O)CN(CC(=O)O)CC(=O)O)NC(=O)[C@H](Cc1c[nH]cn1)NC(=O)[C@H](CCC(N)=O)NC(=O)[C@H](CO)NC(=O)CNC(=O)COCCOCCNC(=O)CCCCCCCCCCCCCCC(=O)O)C(=O)N[C@H]1CCC(=O)NCCCC[C@@H](C(N)=O)NC(=O)[C@H](Cc2c[nH]c3ccccc23)NC(=O)[C@H](CCCNC(=N)N)NC(=O)[C@@H](Cc2ccccc2)NC(=O)[C@@H]2C[C@@H](O)CN2C1=O [Example 13, {2-[2-(15-Carboxypentadecanoylamino)ethoxy]ethoxy}acetyl-Gly-Ser-Gln-His-Dap(BCMA)-Nle-c[Glu-Hyp-D-Phe-Arg-Trp-Lys]-NH2] ({C16 diacid-AEEA}-GSQH[Dap](NTA)[Nle]E[Hyp][dF]RWK-NH2; lactam 7-12) | 59 % of vehicle | 80 % of vehicle
